Measurements reported in publication PMC3711425.
Results are given in words; binding and its absence hold for the method and conditions named. For some of these results: Binding seen in cells or lysates may run through a third protein. Some results given as binding are weak or reduced against the parent protein; the word gives no strength.

The chains behind the UniProt entries cited, without tags or fusion partners. Where a name states a change or a piece, a line headed by the entry shows the natural chain unless it says otherwise. A line that says so, or that is headed by a name, gives the form on record, which may keep a tag or linker.
UniProt O95365: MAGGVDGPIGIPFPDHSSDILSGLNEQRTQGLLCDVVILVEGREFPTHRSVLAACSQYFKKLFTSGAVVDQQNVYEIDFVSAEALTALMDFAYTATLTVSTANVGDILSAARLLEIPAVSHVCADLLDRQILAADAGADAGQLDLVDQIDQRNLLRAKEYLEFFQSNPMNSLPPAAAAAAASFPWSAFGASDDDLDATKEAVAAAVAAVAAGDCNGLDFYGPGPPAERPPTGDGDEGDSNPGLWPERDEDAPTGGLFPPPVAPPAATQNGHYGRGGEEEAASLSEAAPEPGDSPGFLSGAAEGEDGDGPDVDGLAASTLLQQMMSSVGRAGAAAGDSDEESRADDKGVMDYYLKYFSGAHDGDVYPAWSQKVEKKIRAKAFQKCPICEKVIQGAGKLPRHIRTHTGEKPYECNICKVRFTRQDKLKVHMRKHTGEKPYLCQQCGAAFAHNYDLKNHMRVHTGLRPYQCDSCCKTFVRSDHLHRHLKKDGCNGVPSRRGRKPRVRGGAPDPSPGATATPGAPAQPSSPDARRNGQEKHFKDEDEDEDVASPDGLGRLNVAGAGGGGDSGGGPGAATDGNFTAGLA
UniProt Q6W2J9: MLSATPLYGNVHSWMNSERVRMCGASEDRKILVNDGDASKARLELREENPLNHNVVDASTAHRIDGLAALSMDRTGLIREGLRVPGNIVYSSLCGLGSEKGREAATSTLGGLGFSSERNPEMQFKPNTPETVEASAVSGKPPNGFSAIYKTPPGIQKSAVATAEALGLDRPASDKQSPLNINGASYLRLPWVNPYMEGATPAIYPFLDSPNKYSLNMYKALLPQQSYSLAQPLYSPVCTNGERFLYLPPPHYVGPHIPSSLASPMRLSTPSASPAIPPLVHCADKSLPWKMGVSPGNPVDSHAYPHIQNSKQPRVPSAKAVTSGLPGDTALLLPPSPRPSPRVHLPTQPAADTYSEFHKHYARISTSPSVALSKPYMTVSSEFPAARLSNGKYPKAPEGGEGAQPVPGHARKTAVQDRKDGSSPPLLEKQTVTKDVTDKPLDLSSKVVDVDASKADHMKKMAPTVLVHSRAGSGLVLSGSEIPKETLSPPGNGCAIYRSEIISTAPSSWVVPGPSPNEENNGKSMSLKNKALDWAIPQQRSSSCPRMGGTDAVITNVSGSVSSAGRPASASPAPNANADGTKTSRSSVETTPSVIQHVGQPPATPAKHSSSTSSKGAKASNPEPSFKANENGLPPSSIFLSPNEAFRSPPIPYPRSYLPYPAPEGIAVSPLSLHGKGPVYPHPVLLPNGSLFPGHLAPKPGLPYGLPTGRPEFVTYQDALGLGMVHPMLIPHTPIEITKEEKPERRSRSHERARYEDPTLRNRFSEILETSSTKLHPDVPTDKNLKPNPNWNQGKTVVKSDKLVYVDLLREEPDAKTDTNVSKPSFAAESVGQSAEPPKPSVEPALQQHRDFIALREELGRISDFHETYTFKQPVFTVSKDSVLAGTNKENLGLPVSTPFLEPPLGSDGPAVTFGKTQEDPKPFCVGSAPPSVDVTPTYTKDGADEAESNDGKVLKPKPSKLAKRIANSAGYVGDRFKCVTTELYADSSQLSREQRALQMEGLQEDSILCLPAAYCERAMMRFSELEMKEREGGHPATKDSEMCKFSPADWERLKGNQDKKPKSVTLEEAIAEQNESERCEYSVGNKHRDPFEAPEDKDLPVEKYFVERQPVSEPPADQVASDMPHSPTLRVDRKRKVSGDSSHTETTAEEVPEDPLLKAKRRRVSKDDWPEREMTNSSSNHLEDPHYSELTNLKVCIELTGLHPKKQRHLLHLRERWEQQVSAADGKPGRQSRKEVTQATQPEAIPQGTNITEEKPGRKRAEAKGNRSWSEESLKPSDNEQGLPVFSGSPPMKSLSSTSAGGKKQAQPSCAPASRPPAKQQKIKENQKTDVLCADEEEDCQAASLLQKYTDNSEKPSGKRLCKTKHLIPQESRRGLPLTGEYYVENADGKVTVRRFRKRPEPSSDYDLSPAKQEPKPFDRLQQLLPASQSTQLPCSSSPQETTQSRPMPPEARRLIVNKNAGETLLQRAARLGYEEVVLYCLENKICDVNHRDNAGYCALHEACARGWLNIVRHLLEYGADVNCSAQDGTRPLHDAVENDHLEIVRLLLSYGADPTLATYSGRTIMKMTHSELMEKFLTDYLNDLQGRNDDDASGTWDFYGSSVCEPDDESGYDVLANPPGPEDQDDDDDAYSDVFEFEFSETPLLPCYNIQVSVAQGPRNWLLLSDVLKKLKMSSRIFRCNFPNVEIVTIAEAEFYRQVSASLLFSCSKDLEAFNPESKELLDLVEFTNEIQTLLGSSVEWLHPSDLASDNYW
UniProt O95983: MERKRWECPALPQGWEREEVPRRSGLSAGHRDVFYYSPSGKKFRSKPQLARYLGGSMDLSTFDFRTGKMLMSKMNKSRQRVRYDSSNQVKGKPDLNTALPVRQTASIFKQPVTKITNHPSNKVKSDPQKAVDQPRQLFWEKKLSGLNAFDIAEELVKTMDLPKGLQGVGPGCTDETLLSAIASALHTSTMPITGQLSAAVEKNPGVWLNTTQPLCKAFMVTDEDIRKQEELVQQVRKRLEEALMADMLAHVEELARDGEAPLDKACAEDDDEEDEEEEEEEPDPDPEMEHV
MBD3 expressed from pcDNA3.1-MBD3 (O95983-2, form named): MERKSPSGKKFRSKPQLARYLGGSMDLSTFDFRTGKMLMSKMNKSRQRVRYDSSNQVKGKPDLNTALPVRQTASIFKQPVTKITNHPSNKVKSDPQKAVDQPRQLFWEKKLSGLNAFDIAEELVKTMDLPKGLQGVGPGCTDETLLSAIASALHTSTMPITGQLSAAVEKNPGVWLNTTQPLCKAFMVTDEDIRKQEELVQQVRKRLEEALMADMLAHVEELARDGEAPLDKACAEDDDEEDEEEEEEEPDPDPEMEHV
UniProt Q13547: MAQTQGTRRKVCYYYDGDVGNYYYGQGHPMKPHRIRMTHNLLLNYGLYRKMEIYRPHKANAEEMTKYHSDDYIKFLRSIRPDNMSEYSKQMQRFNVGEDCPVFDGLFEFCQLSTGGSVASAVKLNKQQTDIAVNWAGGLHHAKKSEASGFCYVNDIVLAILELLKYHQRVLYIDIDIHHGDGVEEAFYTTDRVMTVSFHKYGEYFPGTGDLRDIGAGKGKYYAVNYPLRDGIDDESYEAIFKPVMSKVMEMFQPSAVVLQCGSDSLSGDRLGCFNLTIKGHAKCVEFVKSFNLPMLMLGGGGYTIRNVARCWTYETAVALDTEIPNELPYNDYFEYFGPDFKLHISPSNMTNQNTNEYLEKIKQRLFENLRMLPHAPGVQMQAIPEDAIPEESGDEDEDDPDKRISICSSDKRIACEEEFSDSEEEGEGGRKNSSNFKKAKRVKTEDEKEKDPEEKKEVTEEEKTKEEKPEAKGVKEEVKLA

Tests used:
[1] = target: Factor that binds to the inducer of short transcripts of human immunodeficiency virus-1 (FBI-1), FLAG-tagged (human) (UniProt O95365); assay: co-IP; HEK293 cells transfected with the expression vectors (Figure 5B); lysates (20 mM Tris-HCl pH 7.5, 150 mM NaCl, 10% glycerol, 1% Triton X-100) immunoprecipitated, western blot; precipitating antibody not given
[2] = target: BCL-6 corepressor (BCoR) from the BCoR expression vector (UniProt Q6W2J9); assay: co-IP; HEK293 cells transfected with the BCoR expression vector; immunoprecipitated with an anti-BCoR antibody; western blot
[3] = target: methyl-CpG-binding domain protein 3 (MBD3), endogenous (human (endogenous in HEK293)) (UniProt O95983); assay: co-IP; nuclear extracts of control and doxycycline-induced stable HEK293-TREx-FLAG-FBI-1 cells; anti-FLAG M2 agarose beads (IgG beads as control) or, in reverse, an antibody against MBD3; western blot
[4] = target: Factor that binds to the inducer of short transcripts of human immunodeficiency virus-1 (FBI-1), FLAG-tagged (human) (UniProt O95365); assay: co-IP; HEK293 cells transfected with the FBI-1 and/or MBD3 expression vector; immunoprecipitated with an anti-FBI-1 antibody; western blot
[5] = target: Factor that binds to the inducer of short transcripts of human immunodeficiency virus-1 (FBI-1), FLAG-tagged (human) (UniProt O95365); assay: ChIP-reChIP; formaldehyde-fixed HEK293 chromatin; first ChIP with anti-FBI-1 or anti-MBD3 antibody, diluted 10 times, second ChIP with the other antibody; PCR of the proximal CDKN1A promoter; ectopic expression or knock-down of FBI-1 or MBD3

Substance | binding [1] | binding [2] | other results
BCL-6 corepressor (BCoR) in the co-IP of Figure 5B (from UniProt Q6W2J9 1-1755) | binds |  | 
FBI-1, endogenous (from UniProt O95365 1-584) |  | binds | 
Factor that binds to the inducer of short transcripts of human immunodeficiency virus-1 (FBI-1), FLAG-tagged (from UniProt O95365 1-584) |  |  | binding [3]: binds
HDAC1 (from UniProt Q13547 1-482) (enzyme) |  | binds | 
MBD3 expressed from pcDNA3.1-MBD3 (from UniProt O95983-2 1-259) | binds |  | binding [4]: binds; binding [5]: binds
